Reference: PubChem BioAssay AID246 (DTP/NCI, 2004)
The list is a part of this screen's results and no random one: it is rich in T/C values a quarter to a half above the control, in often repeated tests (any T/C) and in doses without a T/C. Other doses and runs of a compound stand elsewhere. T/C gives the treated animals as a percentage of the vehicle group. Some entries give survivors of the animals treated and no T/C: the source holds a T/C of zero for them, seemingly a mark for toxic or unscored doses. Some doses without a T/C left all or most animals alive at the check, yet need not have been tolerated: the source hardly ever lists a survival T/C far under the control, and the zero likely stands for such cases as well. Counts of survivors are from the toxicity check (mostly the fifth day) where no day follows; animals may have died later. Schedule codes are those of the source, read here as Q, the interval in days (D) or hours (H), X, the number of doses. Some schedules carry Z or #; the key to these is not given. Some entries were tested several times; the values are given in rising order. Where survival is the endpoint, this PubChem deposit counts one and a half times the control or more as active, and values a quarter to a half above the control carry no call in these data; other NCI protocols may use other cut-offs. Counts like (3×) give the number of equal values in this list. Some T/C values are followed by the survivors on the day toxicity was checked, most often the fifth; where none is given, no animal had died by that day. Numbered stars: 1 amine (or outer) side, 2 acyl side, 3 side chain; on linkers, the order of the positions; unused ones are H or OH. Bridge positions count the residues as written; N and C are the ends. Square brackets hold non-standard residues; d marks the D form. Peptide text beside a SMILES is read from it. I, II: the chains in the order shown. Actinocin(9to1) = Cc1c2oc3c(C)ccc(C(=O)[*:1])c3nc-2c(C(=O)[*:2])c(N)c1=O; aThr = C[C@H](O)[C@H](N)C(=O)O; NMeV = CN[C@H](C(=O)O)C(C)C; Sar = CNCC(=O)O

Tested on: BDF1 mice, P1081 chloroleukemia ip, survival T/C
Experiment: NCI In Vivo Anticancer Drug Screen. Data for tumor model P1081 Chloroleukemia (intraperitoneal) in B6D2F1 (BDF1) mice
Settings: T/C endpoint: mean survival time, higher T/C = longer survival
Procedure: The antitumor activity of compounds was measured in mice bearing transplantable tumors. Survival or tumor size were measured and the results are expressed as the measurement made in the treated group (T) divided by the measurement made in the vehicle treated control group (C). The tumor model used in this assay is P1081 Chloroleukemia (intraperitoneal) in B6D2F1 (BDF1) mice

[1] = dose: 2.0 mg/kg/injection, schedule: Q01DX010 (ip), vehicle: saline
[2] = dose: 16.0 mg/kg/injection, schedule: Q01DX010 (ip), vehicle: saline
[3] = dose: 54.0 mg/kg/injection, schedule: Q01DX010 (ip), vehicle: saline
[4] = dose: 200.0 mg/kg/injection, schedule: Q01DX Z (ip), vehicle: carboxymethylcellulose (CMC)
[5] = dose: 63.0 micrograms/kg/injection, schedule: Q01DX Z (ip), vehicle: alkali diluted with saline
[6] = dose: 100.0 mg/kg/injection, schedule: Q01DX Z (ip), vehicle: carboxymethylcellulose (CMC)
[7] = dose: 0.5 mg/kg/injection, schedule: Q01DX010 (ip), vehicle: saline
[8] = dose: 12.5 mg/kg/injection, schedule: Q01DX Z (ip), vehicle: carboxymethylcellulose (CMC)
[9] = dose: 25.0 mg/kg/injection, schedule: Q01DX Z (ip), vehicle: carboxymethylcellulose (CMC)
[10] = dose: 50.0 mg/kg/injection, schedule: Q01DX Z (ip), vehicle: carboxymethylcellulose (CMC)

CS(=O)(=O)OCCN(CCOS(C)(=O)=O)c1ccc(N=O)cc1
survivor count [1]: 6 of 6 | survivor count (dose: 4.0 mg/kg/injection, schedule: Q01DX010 (ip), vehicle: saline): 6 of 6 | survivor count (dose: 8.0 mg/kg/injection, schedule: Q01DX010 (ip), vehicle: saline): 6 of 6 | survivor count [2]: 1 of 6

CN(C)c1ccc(Nc2c3ccccc3nc3ccccc23)cc1
T/C [2]: 125 % of control | T/C (dose: 24.0 mg/kg/injection, schedule: Q01DX010 (ip), vehicle: saline): 130 % of control | T/C (dose: 36.0 mg/kg/injection, schedule: Q01DX010 (ip), vehicle: saline): 130 % of control | T/C [3]: 135 % of control | survivor count [3]: 6 of 6 | survivor count (dose: 80.0 mg/kg/injection, schedule: Q01DX010 (ip), vehicle: saline): 6 of 6 | survivor count (dose: 120.0 mg/kg/injection, schedule: Q01DX010 (ip), vehicle: saline): 5 of 6 | survivor count [4]: 6 of 6

Nc1nc(N)c2nc(CNc3ccc(C(=O)NC(CCC(=O)O)C(=O)O)cc3)cnc2n1 (stereo not given)
T/C (dose: 0.1 mg/kg/injection, schedule: Q01DX010 (ip), vehicle: other): 125 and 140 % of control | survivor count (dose: 0.4 mg/kg/injection, schedule: Q01DX010 (ip), vehicle: other): 3 of 6 | T/C [5]: 135 % of control | survivor count [5]: 6 of 6 | survivor count (dose: 125.0 micrograms/kg/injection, schedule: Q01DX Z (ip), vehicle: alkali diluted with saline): 6 of 6 | survivor count (dose: 250.0 micrograms/kg/injection, schedule: Q01DX Z (ip), vehicle: alkali diluted with saline): 6 of 6 | survivor count (dose: 500.0 micrograms/kg/injection, schedule: Q01DX Z (ip), vehicle: alkali diluted with saline): 5 of 6

CC(=O)Nc1ccc2nc3ccc(NC(C)=O)cc3[n+](-c3ccccc3)c2c1
survivor count [6]: 6 of 6

CC[C@]1(O)C[C@H]2CN(CCc3c([nH]c4ccccc34)[C@@](C(=O)OC)(c3cc4c(cc3OC)N(C=O)[C@H]3[C@@](O)(C(=O)OC)[C@H](OC(C)=O)[C@]5(CC)C=CCN6CC[C@]43[C@@H]65)C2)C1
T/C (dose: 0.03 mg/kg/injection, schedule: Q01DX010 (ip), vehicle: saline): 115, 118, 122, 125 % of control | T/C (dose: 0.06 mg/kg/injection, schedule: Q01DX010 (ip), vehicle: saline): 117, 130, 133, 146 % of control | T/C (dose: 0.12 mg/kg/injection, schedule: Q01DX010 (ip), vehicle: saline): 123, 150, 152, 161 % of control | T/C (dose: 0.12 mg/kg/injection, schedule: Q01DX Z (ip), vehicle: water): 129 % of control | T/C (dose: 0.25 mg/kg/injection, schedule: Q01DX010 (ip), vehicle: saline): 127, 170, 188, 237 % of control | T/C (dose: 0.25 mg/kg/injection, schedule: Q01DX Z (ip), vehicle: water): 145 % of control | T/C [7]: 92 and 100 % of control | survivor count [7]: 6 of 6 | T/C (dose: 0.5 mg/kg/injection, schedule: Q01DX Z (ip), vehicle: water): 139 % of control

CCCCCCCCCCCCNCCCCCCCCCCCC
T/C (dose: 0.95 mg/kg/injection, schedule: Q01DX Z (ip), vehicle: carboxymethylcellulose (CMC)): 137 % of control | survivor count (dose: 0.95 mg/kg/injection, schedule: Q01DX Z (ip), vehicle: saline): 6 of 6 | survivor count (dose: 7.5 mg/kg/injection, schedule: Q01DX Z (ip), vehicle: carboxymethylcellulose (CMC)): 6 of 6 | survivor count (dose: 15.0 mg/kg/injection, schedule: Q01DX Z (ip), vehicle: carboxymethylcellulose (CMC)): 5 of 6 | survivor count (dose: 30.0 mg/kg/injection, schedule: Q01DX Z (ip), vehicle: carboxymethylcellulose (CMC)): 4 of 6 | survivor count (dose: 60.0 mg/kg/injection, schedule: Q01DX Z (ip), vehicle: carboxymethylcellulose (CMC)): 0 of 6

O=C(Nc1ccc(NC2=NCCN2)cc1)c1ccc(C(=O)Nc2ccc(NC3=NCCN3)cc2)cc1
T/C [1]: 130 % of control | T/C (dose: 4.0 mg/kg/injection, schedule: Q01DX Z (ip), vehicle: saline): 132 % of control | T/C [2]: 140 and 144 % of control | survivor count (dose: 16.0 mg/kg/injection, schedule: Q01DX Z (ip), vehicle: saline): 6 of 6 | survivor count (dose: 32.0 mg/kg/injection, schedule: Q01DX Z (ip), vehicle: saline): 6 of 6 | survivor count (dose: 64.0 mg/kg/injection, schedule: Q01DX Z (ip), vehicle: saline): 6 of 6

Nc1ncnc2[nH]ncc12
survivor count (dose: 6.25 mg/kg/injection, schedule: Q01DX Z (ip), vehicle: carboxymethylcellulose (CMC)): 3 of 6 | survivor count [8]: 5 of 6 | survivor count [9]: 5 of 6 | survivor count [10]: 0 of 6

C[C@@H]1C[C@@H]([C@H](O)CC2CC(=O)NC(=O)C2)C(=O)[C@@H](C)C1
T/C (dose: 40.0 mg/kg/injection, schedule: Q01DX010 (ip), vehicle: saline): 130 % of control | survivor count (dose: 200.0 mg/kg/injection, schedule: Q01DX Z (ip), vehicle: water): 0 of 6

CO[C@@H]1[C@@H](OC2OC(C)C(OC3CC(C)(O)C(OC(=O)CC(C)C)C(C)O3)C(N(C)C)C2O)[C@@H](CC=O)C[C@@H](C)C(=O)/C=C/C2O[C@H]2C[C@@H](C)OC(=O)C[C@H]1OC(C)=O (stereo not given in full)
T/C (dose: 300.0 mg/kg/injection, schedule: Q01DX010 (ip), vehicle: saline): 125 % of control

Cc1c2oc3c(C)ccc(C(=O)N[C@@H]4C(=O)N[C@H](C(C)C)C(=O)N5CCC[C@H]5C(=O)N(C)CC(=O)N(C)[C@@H](C(C)C)C(=O)O[C@H]4C)c3nc-2c(C(=O)N[C@@H]2C(=O)N[C@H](C(C)C)C(=O)N3CCC[C@H]3C(=O)N(C)CC(=O)N(C)[C@@H](C(C)C)C(=O)O[C@H]2C)c(N)c1=O (I: [aThr][dV]P[Sar][NMeV] / II: [aThr][dV]P[Sar][NMeV]; ester I:1-I:C, II:1-II:C; linker I:N-II:N via Actinocin(9to1))
T/C (dose: 12.5 micrograms/kg/injection, schedule: Q01DX010 (ip), vehicle: other): 140 % of control | T/C (dose: 25.0 micrograms/kg/injection, schedule: Q01DX Z (ip), vehicle: saline): 133 % of control | T/C (dose: 100.0 micrograms/kg/injection, schedule: Q01DX010 (ip), vehicle: other): 130 % of control

CCN(CC)C(=S)S
survivor count (dose: 500.0 mg/kg/injection, schedule: Q01DX Z (ip), vehicle: other): 5 of 6

Nc1nc2n[nH]nc2c(=O)[nH]1
T/C (dose: 25.0 mg/kg/injection, schedule: Q01DX010 (ip), vehicle: alkali diluted with saline): 130 % of control (2×) | T/C (dose: 25.0 mg/kg/injection, schedule: Q01DX Z (ip), vehicle: other): 141 % of control | T/C (dose: 50.0 mg/kg/injection, schedule: Q01DX010 (ip), vehicle: alkali diluted with saline): 135 and 140 % of control | T/C (dose: 100.0 mg/kg/injection, schedule: Q01DX010 (ip), vehicle: alkali diluted with saline): 140 % of control (2×) | T/C (dose: 200.0 mg/kg/injection, schedule: Q01DX010 (ip), vehicle: alkali diluted with saline): 145 and 145 % of control [5 of 6 alive] | T/C (dose: 200.0 mg/kg/injection, schedule: Q01DX Z (ip), vehicle: other): 138 % of control

CN(Cc1cnc2nc(N)nc(N)c2n1)c1c(Cl)cc(C(=O)NC(CCC(=O)O)C(=O)O)cc1Cl (stereo not given)
T/C [10]: 130 % of control | survivor count [6]: 5 of 6

C[N+](C)(C)c1ncnc2nc[nH]c12
T/C [8]: 139 % of control | survivor count [8]: 6 of 6 | T/C [9]: 92, 106, 147 % of control | survivor count [9]: 5 of 6 | survivor count [10]: 6 of 6 | T/C [6]: 130 % of control | survivor count [6]: 6 of 6 | survivor count [4]: 0 of 6 and 5 of 6 | survivor count (dose: 400.0 mg/kg/injection, schedule: Q01DX Z (ip), vehicle: carboxymethylcellulose (CMC)): 1 of 6 | survivor count (dose: 800.0 mg/kg/injection, schedule: Q01DX Z (ip), vehicle: carboxymethylcellulose (CMC)): 0 of 6
